PubChem BioAssay AID686938 | Drosophila RNAi Screening Center – 2013
The deposit covers about 23,000 reagents; this is a random part of those that have a named target and a result. Of all reagents, 75 (0.33%) are marked active. 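Raw plate signals without normalisation; calls rest on plate z-scores that were not deposited; ratio present for only 364 wells.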 Not given: the dose of the treatment.

Test: 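Looking for CRAC channel components and the factors controlling them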 (primary screen)
System: Drosophila S2R+ cells
Reagent: long dsRNA against Drosophila genes, about 0.25 µg dsRNA per well, roughly 10,000 cells
Duration: 5 days of knock-down before the calcium assay
Conditions: thapsigargin (SERCA pump blocker) to empty calcium stores; entry signal taken 4 min after adding it
Read-out: 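Per-well fluo-4 fluorescence in two replicates, unnormalised, measured in resting cells and 4 min after store depletion by the SERCA blocker thapsigargin; ratio of the two present in few wells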
Reading the numbers: calcium entry signal: higher = stronger calcium signal after store depletion; entry to resting ratio: higher = more calcium entry relative to resting level; resting calcium signal: higher = higher resting calcium signal
Units: calcium entry signal in fluorescence units; resting calcium signal in fluorescence units
Active means: 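Called when the plate z-score of the entry-to-rest ratio, mean of duplicates, falls below −3; wells with low overall dye signal (Fmax z below −2) or more than five off-targets excluded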
Meaning of the calls: active = strongly reduced calcium entry; inactive = no strong reduction

For CG7423 [DRSC20044], what was measured?
calcium entry signal, replicate 1: 4.87e7; calcium entry signal, replicate 2: 3.82e7; resting calcium signal, replicate 1: 2.27e7; resting calcium signal, replicate 2: 1.64e7; Outcome: inactive

With Vamp7 [DRSC06599], how do the results read?
calcium entry signal, replicate 1: 3.49e7; calcium entry signal, replicate 2: 3.61e7; resting calcium signal, replicate 1: 1.85e7; resting calcium signal, replicate 2: 1.43e7; Outcome: inactive

What is on record for Xrcc2 [DRSC19984]?
calcium entry signal, replicate 1: 3.56e7; calcium entry signal, replicate 2: 3.02e7; resting calcium signal, replicate 1: 1.86e7; resting calcium signal, replicate 2: 1.59e7; Outcome: inactive

With ppk5 [DRSC11492], what was measured?
calcium entry signal, replicate 1: 3.59e7; calcium entry signal, replicate 2: 3.41e7; resting calcium signal, replicate 1: 1.78e7; resting calcium signal, replicate 2: 1.60e7; Outcome: inactive

With CG34447 [DRSC00741], how do the results read?
calcium entry signal, replicate 1: 4.22e7; calcium entry signal, replicate 2: 4.77e7; resting calcium signal, replicate 1: 1.82e7; resting calcium signal, replicate 2: 2.06e7; Outcome: inactive

For CG14692 [DRSC14915], what does the deposit list?
calcium entry signal, replicate 1: 3.01e7; calcium entry signal, replicate 2: 3.11e7; resting calcium signal, replicate 1: 1.46e7; resting calcium signal, replicate 2: 1.70e7; Outcome: inactive

How did the screen score CG14151 [DRSC10153]?
calcium entry signal, replicate 1: 1.08e7; calcium entry signal, replicate 2: 2.14e7; resting calcium signal, replicate 1: 6.46e6; resting calcium signal, replicate 2: 9.58e6; Outcome: inactive

With CG34461 [DRSC10767], what was measured?
calcium entry signal, replicate 1: 2.01e7; calcium entry signal, replicate 2: 3.63e7; resting calcium signal, replicate 1: 9.64e6; resting calcium signal, replicate 2: 1.35e7; Outcome: inactive

Which result is listed for Alp2 [DRSC04354]?
calcium entry signal, replicate 1: 4.93e7; calcium entry signal, replicate 2: 5.33e7; resting calcium signal, replicate 1: 2.56e7; resting calcium signal, replicate 2: 2.36e7; Outcome: inactive

Which result is listed for Rubicon [DRSC17889]?
calcium entry signal, replicate 1: 3.37e7; calcium entry signal, replicate 2: 3.78e7; resting calcium signal, replicate 1: 1.72e7; resting calcium signal, replicate 2: 1.83e7; Outcome: inactive

With CG2931 [DRSC12324], what does the deposit list?
calcium entry signal, replicate 1: 5.61e7; calcium entry signal, replicate 2: 4.33e7; resting calcium signal, replicate 1: 2.72e7; resting calcium signal, replicate 2: 1.83e7; Outcome: inactive

How did the screen score bowl [DRSC00805]?
calcium entry signal, replicate 1: 4.91e7; resting calcium signal, replicate 1: 2.87e7; Outcome: inactive

For uex [DRSC20784], how do the results read?
calcium entry signal, replicate 1: 3.34e7; calcium entry signal, replicate 2: 3.82e7; resting calcium signal, replicate 1: 1.58e7; resting calcium signal, replicate 2: 1.70e7; Outcome: inactive

With uex [DRSC20786], what was measured?
calcium entry signal, replicate 1: 3.59e7; calcium entry signal, replicate 2: 3.41e7; resting calcium signal, replicate 1: 1.62e7; resting calcium signal, replicate 2: 1.71e7; Outcome: inactive

With arm [DRSC18738], what was measured?
calcium entry signal, replicate 1: 4.30e7; calcium entry signal, replicate 2: 4.13e7; resting calcium signal, replicate 1: 1.93e7; resting calcium signal, replicate 2: 1.94e7; Outcome: inactive

For CG17233 [DRSC10259], what was measured?
calcium entry signal, replicate 1: 2.98e7; calcium entry signal, replicate 2: 2.25e7; resting calcium signal, replicate 1: 2.50e7; resting calcium signal, replicate 2: 1.29e7; Outcome: inactive

What did the screen give for Cp7Fb [DRSC18034]?
calcium entry signal, replicate 1: 3.25e7; calcium entry signal, replicate 2: 4.67e7; resting calcium signal, replicate 1: 1.73e7; resting calcium signal, replicate 2: 2.17e7; Outcome: inactive

With GluRIIC [DRSC00642], what was measured?
calcium entry signal, replicate 1: 5.17e7; resting calcium signal, replicate 1: 2.67e7; Outcome: inactive

With CG32795 [DRSC18609], what does the deposit list?
calcium entry signal, replicate 1: 3.25e7; calcium entry signal, replicate 2: 4.54e7; entry to resting ratio: 2; resting calcium signal, replicate 1: 1.66e7; resting calcium signal, replicate 2: 1.99e7; Outcome: inactive

What is on record for CG32795 [DRSC18610]?
calcium entry signal, replicate 1: 3.24e7; calcium entry signal, replicate 2: 5.37e7; entry to resting ratio: 2.1; resting calcium signal, replicate 1: 1.53e7; resting calcium signal, replicate 2: 2.07e7; Outcome: inactive

With PH4alphaMP [DRSC17031], what was measured?
calcium entry signal, replicate 1: 3.52e7; calcium entry signal, replicate 2: 4.78e7; resting calcium signal, replicate 1: 1.80e7; resting calcium signal, replicate 2: 1.76e7; Outcome: inactive

What is on record for mbo [DRSC16123]?
calcium entry signal, replicate 1: 3.46e7; calcium entry signal, replicate 2: 3.92e7; resting calcium signal, replicate 1: 1.56e7; resting calcium signal, replicate 2: 1.72e7; Outcome: inactive

What did the screen give for Msp300 [DRSC00854]?
calcium entry signal, replicate 1: 3.63e7; calcium entry signal, replicate 2: 3.47e7; resting calcium signal, replicate 1: 1.95e7; resting calcium signal, replicate 2: 1.63e7; Outcome: inactive

With Msp300 [DRSC00856], what was measured?
calcium entry signal, replicate 1: 3.43e7; calcium entry signal, replicate 2: 3.82e7; resting calcium signal, replicate 1: 1.80e7; resting calcium signal, replicate 2: 1.80e7; Outcome: inactive

Which result is listed for Msp300 [DRSC00857]?
calcium entry signal, replicate 1: 3.57e7; calcium entry signal, replicate 2: 4.03e7; resting calcium signal, replicate 1: 2.02e7; resting calcium signal, replicate 2: 1.93e7; Outcome: inactive

What is on record for Msp300 [DRSC00858]?
calcium entry signal, replicate 1: 3.24e7; calcium entry signal, replicate 2: 3.92e7; resting calcium signal, replicate 1: 1.86e7; resting calcium signal, replicate 2: 1.79e7; Outcome: inactive

For Msp300 [DRSC02360], what was measured?
calcium entry signal, replicate 1: 3.81e7; calcium entry signal, replicate 2: 4.45e7; resting calcium signal, replicate 1: 1.93e7; resting calcium signal, replicate 2: 2.11e7; Outcome: inactive

What is on record for Msp300 [DRSC03369]?
calcium entry signal, replicate 1: 3.74e7; resting calcium signal, replicate 1: 1.95e7; Outcome: inactive

With Msp300 [DRSC03370], what was measured?
calcium entry signal, replicate 1: 4.10e7; calcium entry signal, replicate 2: 4.20e7; resting calcium signal, replicate 1: 2.11e7; resting calcium signal, replicate 2: 1.96e7; Outcome: inactive

Records above whose target name starts with A or a:
Alp2 [DRSC04354]: calcium entry signal, replicate 1 = 4.93e7; calcium entry signal, replicate 2 = 5.33e7; resting calcium signal, replicate 1 = 2.56e7; resting calcium signal, replicate 2 = 2.36e7; Outcome = inactive
arm [DRSC18738]: calcium entry signal, replicate 1 = 4.30e7; calcium entry signal, replicate 2 = 4.13e7; resting calcium signal, replicate 1 = 1.93e7; resting calcium signal, replicate 2 = 1.94e7; Outcome = inactive
